# Laboratory results taken from PubChem BioAssay AID328 (DTP/NCI, 2004).
# The list shows only some results of the screen, not a fair sample: it gathers tests that were run many times, whatever their T/C, doses with no T/C, and many T/C values between a quarter and a half above the control. Other doses and runs of a compound stand elsewhere. T/C is the treated group as % of the vehicle group. Some doses have a count of surviving animals in place of a T/C: the source files T/C as zero there, which appears to mark a toxic dose or a test without result, not a measured value. Some doses without a T/C left all or most animals alive at the check, yet need not have been tolerated: survival well below the control is almost never listed, so the zero probably covers shortened survival too. Counts of survivors are from the toxicity check (mostly the fifth day) where no day follows; animals may have died later. Schedules are NCI's codes, taken here to give the interval after Q, in days (D) or hours (H), and the number of doses after X. Some structures stand for samples that the source files as different forms (salt, stereo form or complex); doses refer to the form tested. Some entries hold several experiments; the results are listed from low to high. For survival time, the PubChem record calls one and a half times the control and up active, and a quarter to a half above the control has no call in these data; cut-offs in other NCI protocols can differ. Some schedules carry Z or #; the key to these is not given. Some T/C values carry the count of animals alive at the toxicity check (mostly the fifth day); without a count, all were alive then. Counts like (3×) count equal records among those shown.
# Tested on: BDF1 mice, P388 leukemia ip, median survival T/C
# Assay: NCI In Vivo Anticancer Drug Screen. Data for tumor model P388 Leukemia (intraperitoneal) in B6D2F1 (BDF1) mice
# Settings: T/C endpoint: median survival time, higher T/C = longer survival
# Method in brief: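 T/C = treated-group survival ÷ vehicle-control survival; tumour transplanted into mice before dosing.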
# [1] = dose: 0.06 mg/kg/injection, schedule: Q01DX010 (ip), vehicle: water
# [2] = dose: 0.5 mg/kg/injection, schedule: Q01DX010 (ip), vehicle: water
# [3] = dose: 1.0 mg/kg/injection, schedule: Q01DX001 (ip), vehicle: water
smiles,measurement,setting,value
CO[C@H](C(=O)[C@@H](O)[C@@H](C)O)[C@@H]1Cc2cc3cc(OC4CC(OC5CC(O)C(O)C(C)O5)C(O)C(C)O4)c(C)c(O)c3c(O)c2C(=O)[C@H]1OC1CC(OC2CC(OC3CC(C)(O)C(O)C(C)O3)C(O)C(C)O2)C(O)C(C)O1 (some centres not stated),T/C,[1],"100 (4×), 109, 110 (2×), 118 % of control"
same,survivor count,[1],5 of 6
same,T/C,"dose: 0.1 mg/kg/injection, schedule: Q01DX010 (ip), vehicle: water","107, 109 (2×), 114, 115, 120 % of control [5 of 6 alive]"
same,T/C,"dose: 0.12 mg/kg/injection, schedule: Q01DX010 (ip), vehicle: saline",138 and 142 % of control
same,T/C,"dose: 0.13 mg/kg/injection, schedule: Q01DX009 (ip), vehicle: saline",125 % of control
same,T/C,"dose: 0.13 mg/kg/injection, schedule: Q01DX010 (ip), vehicle: saline, evaluated on day 5",133 % of control
same,T/C,"dose: 0.13 mg/kg/injection, schedule: Q01DX010 (ip), vehicle: saline, evaluated on day 60",139 % of control
same,T/C,"dose: 0.13 mg/kg/injection, schedule: Q01DX010 (ip), vehicle: saline, run until all animals had died","109, 118, 122, 127 % of control"
same,T/C,"dose: 0.13 mg/kg/injection, schedule: Q01DX010 (ip), vehicle: water","95, 104, 109 (2×), 110 (2×), 118 (2×), 120 % of control"
same,T/C,"dose: 0.19 mg/kg/injection, schedule: Q01DX010 (ip), vehicle: saline",135 % of control
same,T/C,"dose: 0.2 mg/kg/injection, schedule: Q01DX009 (ip), vehicle: water",130 % of control [9 of 10 alive]
same,T/C,"dose: 0.2 mg/kg/injection, schedule: Q01DX010 (ip), vehicle: water","107, 109 (4×), 113, 115, 117, 118 (2×), 125, 127 % of control (2×)"
same,T/C,"dose: 0.2 mg/kg/injection, schedule: Q01DX015 (ip), vehicle: water",130 % of control
same,T/C,"dose: 0.25 mg/kg/injection, schedule: Q01DX010 (ip), vehicle: saline, evaluated on day 5",127 % of control
same,T/C,"dose: 0.25 mg/kg/injection, schedule: Q01DX010 (ip), vehicle: saline, evaluated on day 60","126, 142, 157 % of control"
same,T/C,"dose: 0.25 mg/kg/injection, schedule: Q01DX010 (ip), vehicle: saline, run until all animals had died","109, 113, 122, 127, 127 [6 of 7 alive], 131, 133, 136 % of control"
same,T/C,"dose: 0.25 mg/kg/injection, schedule: Q01DX010 (ip), vehicle: water","104 [5 of 6 alive], 109, 110 (2×), 112 [4 of 6 alive], 113, 118, 118 [5 of 6 alive], 120, 122, 125, 127 (3×), 130 (2×), 136 % of control"
same,T/C,"dose: 0.25 mg/kg/injection, schedule: Q#A X005 (ip), vehicle: saline",127 % of control
same,T/C,"dose: 0.3 mg/kg/injection, schedule: Q01DX010 (ip), vehicle: water","109 [5 of 6 alive], 113, 115 [5 of 6 alive], 118 (2×), 118 [5 of 6 alive], 121, 127 (3×), 130, 132, 136 % of control"
same,T/C,"dose: 0.3 mg/kg/injection, schedule: Q01DX015 (ip), vehicle: water",125 % of control [5 of 6 alive]
same,T/C,"dose: 0.32 mg/kg/injection, schedule: Q01DX005 (ip), vehicle: water",148 % of control
same,T/C,"dose: 0.35 mg/kg/injection, schedule: Q01DX009 (ip), vehicle: water",140 % of control
same,T/C,"dose: 0.38 mg/kg/injection, schedule: Q01DX010 (ip), vehicle: saline",135 % of control
same,T/C,"dose: 0.4 mg/kg/injection, schedule: Q01DX010 (ip), vehicle: water","103, 113 (2×), 118 [5 of 6 alive], 122 (2×), 127 (2×), 132, 136, 139, 140 [5 of 6 alive], 163 % of control"
same,T/C,"dose: 0.4 mg/kg/injection, schedule: Q01DX015 (ip), vehicle: water",135 % of control
same,T/C,"dose: 0.5 mg/kg/injection, schedule: Q01DX001 (ip), vehicle: water",125 % of control
same,T/C,"dose: 0.5 mg/kg/injection, schedule: Q01DX009 (ip), vehicle: clinical formulation",140 % of control
same,survivor count,"dose: 0.5 mg/kg/injection, schedule: Q01DX009 (ip), vehicle: water",6 of 10
same,T/C,"dose: 0.5 mg/kg/injection, schedule: Q01DX010 (ip), vehicle: saline, evaluated on day 5",146 % of control
same,T/C,"dose: 0.5 mg/kg/injection, schedule: Q01DX010 (ip), vehicle: saline, evaluated on day 60","147, 157, 180 % of control"
same,T/C,"dose: 0.5 mg/kg/injection, schedule: Q01DX010 (ip), vehicle: saline, run until all animals had died","131, 136, 140, 154 (4×), 168 % of control"
same,T/C,[2],"90 [5 of 6 alive], 95, 95 [5 of 6 alive], 100, 104, 113 (2×), 120, 122, 122 [5 of 6 alive] (2×), 126 [4 of 6 alive], 127 [4 of 6 alive], 130 [5 of 6 alive], 136, 140 (2×), 140 [5 of 6 alive], 143, 150 % of control"
same,survivor count,[2],"3 of 6, 4 of 6, 5 of 6, 6 of 6"
same,survivor count,"dose: 0.5 mg/kg/injection, schedule: Q01DX015 (ip), vehicle: water",4 of 6
same,T/C,"dose: 0.5 mg/kg/injection, schedule: Q#A X005 (ip), vehicle: saline",127 % of control
same,survivor count,"dose: 0.65 mg/kg/injection, schedule: Q01DX009 (ip), vehicle: water",4 of 10
same,T/C,"dose: 0.75 mg/kg/injection, schedule: Q01DX010 (ip), vehicle: saline",137 % of control
same,survivor count,"dose: 0.75 mg/kg/injection, schedule: Q01DX010 (ip), vehicle: water",4 of 6 and 5 of 6
same,survivor count,"dose: 0.8 mg/kg/injection, schedule: Q01DX009 (ip), vehicle: water",2 of 10 and 4 of 10
same,survivor count,"dose: 0.9 mg/kg/injection, schedule: Q01DX005 (ip), vehicle: water",7 of 8
same,T/C,[3],125 % of control [3 of 4 alive]
same,survivor count,[3],4 of 4
same,survivor count,"dose: 1.0 mg/kg/injection, schedule: Q01DX005 (ip), vehicle: saline",7 of 10
same,survivor count,"dose: 1.0 mg/kg/injection, schedule: Q01DX009 (ip), vehicle: saline",9 of 10
same,T/C,"dose: 1.0 mg/kg/injection, schedule: Q01DX010 (ip), vehicle: saline, evaluated on day 5",180 % of control
same,T/C,"dose: 1.0 mg/kg/injection, schedule: Q01DX010 (ip), vehicle: saline, evaluated on day 60","176, 182, 195 % of control"
same,survivor count,"dose: 1.0 mg/kg/injection, schedule: Q01DX010 (ip), vehicle: saline",5 of 6 and 7 of 7
